Experimental data published in paper PMC9103898.
These are yes or no findings as the source states them, for the method shown. In cells and extracts the contact can be indirect. Binding can be weak; no strength is given. Sequences can lack the tags named with a protein.

Columns and labels:
[1] = molecular target: T1, Lsi1-YFP-N (rice (Dular cDNA)) (UniProt Q6Z2T3); experiment: split reporter; BiFC with eYFP halves (p2300-2YN, p2300-2YC) in Agrobacterium-infiltrated tobacco leaves, confocal microscopy after 48 h
T1 sequence: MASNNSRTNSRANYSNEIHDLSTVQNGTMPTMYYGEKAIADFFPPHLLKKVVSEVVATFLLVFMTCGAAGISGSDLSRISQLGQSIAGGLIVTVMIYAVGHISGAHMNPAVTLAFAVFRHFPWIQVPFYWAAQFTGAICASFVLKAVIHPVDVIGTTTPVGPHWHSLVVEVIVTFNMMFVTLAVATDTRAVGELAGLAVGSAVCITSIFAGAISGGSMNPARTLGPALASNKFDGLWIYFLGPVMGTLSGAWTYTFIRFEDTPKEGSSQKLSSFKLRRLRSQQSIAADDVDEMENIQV

[2] = molecular target: T2, 14-3-3f-YFP-N (rice (Dular cDNA)) (UniProt Q06967); experiment: as above
T2 sequence: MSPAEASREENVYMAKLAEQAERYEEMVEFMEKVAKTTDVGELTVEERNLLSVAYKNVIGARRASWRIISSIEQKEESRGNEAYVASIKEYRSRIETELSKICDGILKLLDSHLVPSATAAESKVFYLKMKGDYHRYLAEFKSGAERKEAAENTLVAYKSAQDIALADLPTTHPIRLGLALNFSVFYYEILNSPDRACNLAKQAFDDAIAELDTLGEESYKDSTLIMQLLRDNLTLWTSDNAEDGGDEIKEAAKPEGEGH

GST::14-3-3f (rice) = molecular target: T3, GST::14-3-3f (rice) (UniProt Q06967); experiment: pull-down; GST::14-3-3f bound to glutathione sepharose incubated with the His fusion protein at low temperature, rinsed with 1 x PBS, eluted with glutathione in Tris-HCl pH 8.0, Western blot with His and GST antibodies
T3 sequence: T2 sequence

For ATP-α-YFP-C (rice (Dular cDNA)), the binding [1] was “binds”.

With ATP-β-YFP-C (rice (Dular cDNA)) the binding [1] was “binds”.

For “CIPK-YFP-C (CBL interacting protein kinase) (rice (Dular cDNA))”, the binding [2] was “binds”.

With His::CIPK (rice) the binding (GST::14-3-3f (rice)) was “binds”.
